Where a sequence shows no end group, the ends are not given. Strings that start with PEPTIDE1 are HELM notation: dots part the residues, brackets hold end groups and non-standard residues.
Assay: general procedure: Fmoc solid-phase peptide synthesis; Fmoc-PAL AM resin (Novabiochem) pre-loaded with GSGSDYKDDDDK-NH2; DIC / Oxyma / collidine
Settings: whole synthesis, analytical HPLC/UPLC
[1] = one disulfide bridge, sequence written open

Q: For “PEPTIDE1{[ac].M.C.S.N.M.W.K.L.A.N.R.W.W.A.C.G.S.G.S.D.Y.K.D.D.D.D.K.[am]}$PEPTIDE1,PEPTIDE1,3:R3-16:R3$$$V2.0”, which “crude HPLC purity” value is on record?
A: 68.53%

Q: Which “crude HPLC purity” value does the source give for “PEPTIDE1{M.C.S.N.M.W.K.L.A.N.R.W.W.A.C.G.S.G.S.D.Y.K.D.D.D.D.K.[am]}$PEPTIDE1,PEPTIDE1,2:R3-15:R3$$$V2.0” here?
A: 69.11%

Q: And the “final HPLC purity” value?
A: 65.3%

Q: With “PEPTIDE1{[ac].M.C.Y.E.D.E.I.W.L.Y.K.V.L.Y.C.G.S.G.S.D.Y.K.D.D.D.D.K.[am]}$PEPTIDE1,PEPTIDE1,3:R3-16:R3$$$V2.0” as the substance, how does the “crude HPLC purity” value read?
A: 28.19%

Q: With “PEPTIDE1{M.C.V.F.D.S.W.L.P.F.V.Y.C.G.S.G.S.D.Y.K.D.D.D.D.K.[am]}$PEPTIDE1,PEPTIDE1,2:R3-13:R3$$$V2.0” as the substance, how does the “crude HPLC purity” value read?
A: 86.52%

Q: With “PEPTIDE1{[ac].M.C.W.S.K.L.I.I.K.Y.Y.L.S.Q.C.G.S.G.S.D.Y.K.D.D.D.D.K.[am]}$PEPTIDE1,PEPTIDE1,3:R3-16:R3$$$V2.0” as the substance, how does the “crude HPLC purity” value read?
A: 11.27%

Q: Which “crude HPLC purity” value does the source give for “PEPTIDE1{M.C.T.F.D.L.F.L.P.F.I.F.C.G.S.G.S.D.Y.K.D.D.D.D.K.[am]}$PEPTIDE1,PEPTIDE1,2:R3-13:R3$$$V2.0” here?
A: 41.31%

Q: With MCYRHPHSNPLFWAC as the substance, how does the “crude HPLC purity” value [1] read?
A: 74.28%

Q: Which “crude HPLC purity” value does the source give for “PEPTIDE1{[ac].M.C.L.R.H.L.Y.E.P.Y.W.H.C.G.S.G.S.D.Y.K.D.D.D.D.K.[am]}$PEPTIDE1,PEPTIDE1,3:R3-14:R3$$$V2.0” here?
A: 63.49%

Q: For MCYHRHIFQNHWYKCGSGSEE, which “crude HPLC purity” value [1] is on record?
A: 50.13%

Q: For “PEPTIDE1{[ac].M.C.E.H.L.F.Y.Y.L.L.V.K.R.Q.C.G.S.G.S.D.Y.K.D.D.D.D.K.[am]}$PEPTIDE1,PEPTIDE1,3:R3-16:R3$$$V2.0”, which “crude HPLC purity” value is on record?
A: 33.38%

Q: Which “crude HPLC purity” value does the source give for “PEPTIDE1{[ac].M.C.I.F.D.L.F.L.P.F.I.F.C.G.S.G.S.D.Y.K.D.D.D.D.K.[am]}$PEPTIDE1,PEPTIDE1,3:R3-14:R3$$$V2.0” here?
A: 0%

Q: And the “final HPLC purity” value?
A: 91.3%

Q: Which “crude HPLC purity” value does the source give for “PEPTIDE1{[ac].M.C.Y.D.I.V.F.D.Y.I.T.V.Y.H.C.G.S.G.S.D.Y.K.D.D.D.D.K.[am]}$PEPTIDE1,PEPTIDE1,3:R3-16:R3$$$V2.0” here?
A: 46.75%

Q: With “PEPTIDE1{[ac].M.C.I.Y.R.L.S.D.F.W.V.E.C.G.S.G.S.D.Y.K.D.D.D.D.K.[am]}$PEPTIDE1,PEPTIDE1,3:R3-14:R3$$$V2.0” as the substance, how does the “crude HPLC purity” value read?
A: 51.51%

Q: What about the “final HPLC purity” value of the same substance?
A: 93.1%

Q: For “PEPTIDE1{[ac].M.C.T.G.R.H.L.Y.Y.W.K.L.F.H.C.G.S.G.S.E.E.G.S.G.S.D.Y.K.D.D.D.D.K.[am]}$PEPTIDE1,PEPTIDE1,3:R3-16:R3$$$V2.0”, which “crude HPLC purity” value is on record?
A: 52.99%

Q: With “PEPTIDE1{[ac].M.C.L.A.Y.Y.L.A.F.H.S.L.C.G.S.G.S.D.Y.K.D.D.D.D.K.[am]}$PEPTIDE1,PEPTIDE1,3:R3-14:R3$$$V2.0” as the substance, how does the “crude HPLC purity” value read?
A: 67.27%

Q: Which “crude HPLC purity” value does the source give for “PEPTIDE1{[ac].M.C.E.D.L.F.Y.Y.I.I.N.R.Y.G.C.G.S.G.S.D.Y.K.D.D.D.D.K.[am]}$PEPTIDE1,PEPTIDE1,3:R3-16:R3$$$V2.0” here?
A: 47.25%

Q: Which “crude HPLC purity” value does the source give for “PEPTIDE1{[ac].M.C.P.K.W.F.I.L.W.R.Q.L.C.G.S.G.S.D.Y.K.D.D.D.D.K.[am]}$PEPTIDE1,PEPTIDE1,3:R3-14:R3$$$V2.0” here?
A: 63.82%

Q: With “PEPTIDE1{[ac].M.C.E.W.F.Y.Y.H.K.S.W.Y.V.Y.C.G.S.G.S.D.Y.K.D.D.D.D.K.[am]}$PEPTIDE1,PEPTIDE1,3:R3-16:R3$$$V2.0” as the substance, how does the “crude HPLC purity” value read?
A: 38.86%

Q: Which “crude HPLC purity” value does the source give for “PEPTIDE1{[ac].M.C.H.I.R.Y.W.Q.L.V.R.K.H.C.G.S.G.S.E.E.G.S.G.S.D.Y.K.D.D.D.D.K.[am]}$PEPTIDE1,PEPTIDE1,3:R3-15:R3$$$V2.0” here?
A: 59.54%

Q: For “PEPTIDE1{M.C.I.R.W.P.A.R.Q.P.L.F.W.L.C.G.S.G.S.D.Y.K.D.D.D.D.K.[am]}$PEPTIDE1,PEPTIDE1,2:R3-15:R3$$$V2.0”, which “crude HPLC purity” value is on record?
A: 81.1%

Q: What about the “final HPLC purity” value of the same substance?
A: 75.7%

Q: Which “crude HPLC purity” value does the source give for “PEPTIDE1{[ac].M.C.E.V.I.W.Y.K.I.Q.W.R.K.C.G.S.G.S.D.Y.K.D.D.D.D.K.[am]}$PEPTIDE1,PEPTIDE1,3:R3-15:R3$$$V2.0” here?
A: 38.42%

Q: For “PEPTIDE1{[ac].M.C.I.T.R.K.N.K.W.E.E.W.R.P.C.G.S.G.S.D.Y.K.D.D.D.D.K.[am]}$PEPTIDE1,PEPTIDE1,3:R3-16:R3$$$V2.0”, which “crude HPLC purity” value is on record?
A: 61.82%

Q: For “PEPTIDE1{[ac].M.C.N.L.S.I.I.H.G.Y.V.A.Y.I.C.G.S.G.S.D.Y.K.D.D.D.D.K.[am]}$PEPTIDE1,PEPTIDE1,3:R3-16:R3$$$V2.0”, which “crude HPLC purity” value is on record?
A: 100.00%

Q: For “PEPTIDE1{[ac].M.C.Y.N.I.Y.W.Y.K.Y.V.R.R.E.C.G.S.G.S.D.Y.K.D.D.D.D.K.[am]}$PEPTIDE1,PEPTIDE1,3:R3-16:R3$$$V2.0”, which “crude HPLC purity” value is on record?
A: 44.06%

Q: Which “crude HPLC purity” value does the source give for “PEPTIDE1{[ac].M.C.D.S.I.R.A.Q.Y.A.R.W.W.I.C.G.S.G.S.D.Y.K.D.D.D.D.K.[am]}$PEPTIDE1,PEPTIDE1,3:R3-16:R3$$$V2.0” here?
A: 55.20%

Q: For “PEPTIDE1{[ac].M.C.P.Y.Y.V.Q.Y.W.R.V.F.C.G.S.G.S.D.Y.K.D.D.D.D.K.[am]}$PEPTIDE1,PEPTIDE1,3:R3-14:R3$$$V2.0”, which “crude HPLC purity” value is on record?
A: 36.54%

Q: Which “crude HPLC purity” value does the source give for “PEPTIDE1{[ac].M.C.K.K.H.L.L.Y.Y.L.I.A.C.G.S.G.S.D.Y.K.D.D.D.D.K.[am]}$PEPTIDE1,PEPTIDE1,3:R3-14:R3$$$V2.0” here?
A: 63.23%

Q: With MCFRWRLFHHLTPYC as the substance, how does the “crude HPLC purity” value [1] read?
A: 87.99%

Q: With MCDCHPLLCFLLC as the substance, how does the “crude HPLC purity” value read?
A: 40.37%

Q: Which “crude HPLC purity” value does the source give for “PEPTIDE1{[ac].M.C.W.W.F.K.Q.H.E.F.W.F.K.V.C.G.S.G.S.D.Y.K.D.D.D.D.K.[am]}$PEPTIDE1,PEPTIDE1,3:R3-16:R3$$$V2.0” here?
A: 34.21%

Q: Which “crude HPLC purity” value does the source give for “PEPTIDE1{[ac].M.C.F.W.R.F.F.P.A.L.L.A.C.G.S.G.S.D.Y.K.D.D.D.D.K.[am]}$PEPTIDE1,PEPTIDE1,3:R3-14:R3$$$V2.0” here?
A: 35.76%

Q: With “PEPTIDE1{[ac].M.C.V.W.K.Y.R.L.D.R.N.W.Y.C.G.S.G.S.D.Y.K.D.D.D.D.K.[am]}$PEPTIDE1,PEPTIDE1,3:R3-15:R3$$$V2.0” as the substance, how does the “crude HPLC purity” value read?
A: 29.62%

Q: Which “crude HPLC purity” value does the source give for “PEPTIDE1{[ac].M.C.K.I.W.Y.V.D.H.K.F.W.W.V.C.G.S.G.S.D.Y.K.D.D.D.D.K.[am]}$PEPTIDE1,PEPTIDE1,3:R3-16:R3$$$V2.0” here?
A: 43.18%

Q: Which “crude HPLC purity” value does the source give for “PEPTIDE1{[ac].M.C.R.W.V.K.Y.Y.Q.L.V.H.R.K.C.G.S.G.S.D.Y.K.D.D.D.D.K.[am]}$PEPTIDE1,PEPTIDE1,3:R3-16:R3$$$V2.0” here?
A: 47.25%

Q: For “PEPTIDE1{[ac].M.C.V.T.W.Y.K.V.T.K.L.R.C.G.S.G.S.D.Y.K.D.D.D.D.K.[am]}$PEPTIDE1,PEPTIDE1,3:R3-14:R3$$$V2.0”, which “final HPLC purity” value is on record?
A: 89.4%

Q: For MCYKWPIRSHLYWLC, which “crude HPLC purity” value [1] is on record?
A: 55.16%

Q: For “PEPTIDE1{[ac].M.C.H.R.Y.I.Y.L.D.Y.W.H.C.G.S.G.S.D.Y.K.D.D.D.D.K.[am]}$PEPTIDE1,PEPTIDE1,3:R3-14:R3$$$V2.0”, which “crude HPLC purity” value is on record?
A: 55.61%

Q: For MCLYDSFLPFIFC, which “crude HPLC purity” value [1] is on record?
A: 78.76%

Q: With “PEPTIDE1{[ac].M.C.W.Y.D.Q.H.S.F.Y.W.E.R.L.C.G.S.G.S.D.Y.K.D.D.D.D.K.[am]}$PEPTIDE1,PEPTIDE1,3:R3-16:R3$$$V2.0” as the substance, how does the “crude HPLC purity” value read?
A: 58.39%

Q: Which “crude HPLC purity” value does the source give for “PEPTIDE1{[ac].M.C.S.H.C.W.L.F.K.V.L.L.M.G.S.G.S.D.Y.K.D.D.D.D.K.[am]}$PEPTIDE1,PEPTIDE1,3:R3-6:R3$$$V2.0” here?
A: 60.15%

Q: For “PEPTIDE1{M.C.V.F.D.S.W.L.P.F.V.F.C.G.S.G.S.D.Y.K.D.D.D.D.K.[am]}$PEPTIDE1,PEPTIDE1,2:R3-13:R3$$$V2.0”, which “crude HPLC purity” value is on record?
A: 78.64%

Q: Which “crude HPLC purity” value does the source give for “PEPTIDE1{[ac].M.C.Y.K.H.I.L.W.Y.K.I.Q.K.L.C.G.S.G.S.E.E.G.S.G.S.D.Y.K.D.D.D.D.K.[am]}$PEPTIDE1,PEPTIDE1,3:R3-16:R3$$$V2.0” here?
A: 89.29%

Q: Which “crude HPLC purity” value does the source give for “PEPTIDE1{[ac].M.C.L.W.H.Y.Y.K.I.F.R.R.Q.K.C.G.S.G.S.D.Y.K.D.D.D.D.K.[am]}$PEPTIDE1,PEPTIDE1,3:R3-16:R3$$$V2.0” here?
A: 57.28%

Q: Which “crude HPLC purity” value does the source give for “PEPTIDE1{M.C.T.F.D.T.H.F.P.F.I.T.C.G.S.G.S.D.Y.K.D.D.D.D.K.[am]}$PEPTIDE1,PEPTIDE1,2:R3-13:R3$$$V2.0” here?
A: 76.88%

Q: With “PEPTIDE1{[ac].M.C.I.R.Y.L.F.Y.Y.L.I.S.H.C.G.S.G.S.D.Y.K.D.D.D.D.K.[am]}$PEPTIDE1,PEPTIDE1,3:R3-15:R3$$$V2.0” as the substance, how does the “crude HPLC purity” value read?
A: 40.68%

Q: Which “crude HPLC purity” value does the source give for “PEPTIDE1{[ac].M.C.T.H.R.H.P.Y.E.T.L.W.H.Q.C.G.S.G.S.D.Y.K.D.D.D.D.K.[am]}$PEPTIDE1,PEPTIDE1,3:R3-16:R3$$$V2.0” here?
A: 73.30%

Q: Which “crude HPLC purity” value does the source give for “PEPTIDE1{[ac].M.C.S.I.L.L.Y.K.V.L.S.R.C.G.S.G.S.D.Y.K.D.D.D.D.K.[am]}$PEPTIDE1,PEPTIDE1,3:R3-14:R3$$$V2.0” here?
A: 47.44%

Q: With “PEPTIDE1{[ac].M.C.A.K.A.F.L.L.W.K.G.K.F.C.G.S.G.S.E.E.G.S.G.S.D.Y.K.D.D.D.D.K.[am]}$PEPTIDE1,PEPTIDE1,3:R3-15:R3$$$V2.0” as the substance, how does the “crude HPLC purity” value read?
A: 12.76%

Q: With MCHPTRLHLWLCCNC as the substance, how does the “crude HPLC purity” value read?
A: 0%

Q: And the “final HPLC purity” value?
A: 62.1%

Q: With “PEPTIDE1{[ac].M.C.D.L.Y.T.V.L.W.Y.K.I.Q.K.E.C.G.S.G.S.D.Y.K.D.D.D.D.K.[am]}$PEPTIDE1,PEPTIDE1,3:R3-17:R3$$$V2.0” as the substance, how does the “crude HPLC purity” value read?
A: 26.58%

Q: With MCLFDLHLPFIFC as the substance, how does the “crude HPLC purity” value [1] read?
A: 93.22%

Q: For “PEPTIDE1{[ac].M.C.L.I.S.I.Y.K.V.L.K.H.C.G.S.G.S.D.Y.K.D.D.D.D.K.[am]}$PEPTIDE1,PEPTIDE1,3:R3-14:R3$$$V2.0”, which “crude HPLC purity” value is on record?
A: 51.75%
